PubChem BioAssay AID504764 – Drosophila RNAi Screening Center, 2011
The screen tested about 22,000 reagents; below is a random part of those with a known target gene and a result. Over the whole deposit, 403 (1.9%) are marked active. 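Unnormalised raw counts per well; ratio z-scores behind the hit calls and whether each hit raises or lowers signal are not deposited.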 Reagent sequences are not shown. Not stated in the record: the amount of reagent.

Purpose: 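Knock-downs that raise or lower a Notch target reporter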 (primary screen)
Cells: Drosophila Kc167 cells
Reagents: long dsRNA against Drosophila genes
Time to read-out: about 5 days (4 days dsRNA, then 24 h after transfection)
Conditions: transfection of constitutively active membrane-tethered Notch lacking the extracellular domain, read 24 h later
Read-out: 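Firefly luciferase from an E(spl)m3 reporter with active Notch, plus control-promoter and uninduced reporter wells for normalisation; unnormalised counts, duplicate wells a and b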
Direction: induced reporter light, run 1, well a and induced reporter light, run 1, well b: higher = more light from the Notch target reporter with active Notch; control promoter light, run 1, well a and control promoter light, run 1, well b: higher = more light from the viral control promoter (cell number, transfection, viability); uninduced reporter light, run 1, well a: higher = more light from the Notch target reporter without active Notch
Hit rule: 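Hit if the duplicate-averaged log2 ratio of induced to control-promoter light gives a plate-wise z beyond ±2, or induced to uninduced beyond ±1.8; weak-control or discordant-duplicate wells dropped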
Calls: active = modifier hit (raised or lowered Notch signal); inactive = not a hit

| Target gene | PubChem SID | induced reporter light, run 1, well a | induced reporter light, run 1, well b | control promoter light, run 1, well a | control promoter light, run 1, well b | uninduced reporter light, run 1, well a | activity call |
| --- | --- | --- | --- | --- | --- | --- | --- |
| Mic26-27 (GeneID 41959) | SID104195705 | 1.97e5 | 1.96e5 | 2.73e5 | 2.33e5 | 19925 | inactive |
| aly (GeneID 45960) | SID104188499 | 1.27e5 | 1.57e5 | 1.81e5 | 1.66e5 | 10175 | inactive |
| CG10337 (GeneID 35247) | SID104181830 | 68650 | 70440 | 99340 | 1.86e5 | 5720 | inactive |
| TotA (GeneID 44121) | SID104193240 | 65445 | 49770 | 67000 | 53120 | 9285 | inactive |
| CG31821 (GeneID 34938) | SID104201709 | – | – | – | – | – | inactive |
| AdamTS-A (GeneID 41887) | SID104194784 | 1.21e5 | 1.31e5 | 82585 | 78780 | 11095 | inactive |
| AdamTS-A (GeneID 41887) | SID104195758 | 2.80e5 | 2.89e5 | 2.21e5 | 2.20e5 | 17250 | inactive |
| CG6435 (GeneID 36894) | SID104186779 | 1.51e5 | 97155 | 1.64e5 | 1.33e5 | 10765 | inactive |
| casp (GeneID 36769) | SID104186956 | 47940 | 60530 | 69920 | 73935 | 4535 | inactive |
| ND-B15 (GeneID 36640) | SID104185991 | 71860 | 79700 | 98525 | 92580 | 7025 | inactive |
| CG5968 (GeneID 34986) | SID104182708 | 1.95e5 | 2.16e5 | 2.74e5 | 3.18e5 | 17145 | inactive |
| Dr (GeneID 45285) | SID104196794 | 2.23e5 | 2.45e5 | 2.43e5 | 2.72e5 | 15695 | inactive |
| Ide (GeneID 40248) | SID104191659 | 1.37e5 | 1.08e5 | 78785 | 1.05e5 | 10150 | inactive |
| CG10874 (GeneID 33394) | SID104180089 | 91605 | 1.06e5 | 85265 | 61260 | 7290 | inactive |
| CG7368 (GeneID 39301) | SID104190618 | 2.24e5 | 2.12e5 | 2.96e5 | 2.29e5 | 11320 | inactive |
| CG9609 (GeneID 32663) | SID104199991 | 1.30e5 | 1.23e5 | 1.11e5 | 94280 | 11310 | inactive |
| CG33140 (GeneID 35642) | SID104185822 | 1.61e5 | 1.38e5 | 1.44e5 | 1.59e5 | 12565 | inactive |
| CG13227 (GeneID 36179) | SID104186139 | 1.28e5 | 1.36e5 | 1.27e5 | 1.27e5 | 12870 | inactive |
| DCX-EMAP (GeneID 39617) | SID104189804 | 1.32e5 | 1.39e5 | 2.12e5 | 1.45e5 | 8520 | inactive |
| DCX-EMAP (GeneID 39617) | SID104189805 | 33505 | 25820 | 30835 | 39410 | 6388 | inactive |
| Psf3 (GeneID 31967) | SID104198008 | 1.18e5 | 1.31e5 | 1.30e5 | 1.64e5 | 8470 | inactive |
| CG44014 (GeneID 41893) | SID104194787 | 1.70e5 | 2.01e5 | 1.85e5 | 1.91e5 | 14105 | inactive |
| Arpc5 (GeneID 33444) | SID104180522 | 1.08e5 | 87700 | 94970 | 55135 | 7420 | inactive |
| CG18507 (GeneID 34775) | SID104181126 | 1.18e5 | 1.20e5 | 1.31e5 | 1.26e5 | 8055 | inactive |
| CG18507 (GeneID 34775) | SID104181706 | 1.85e5 | 1.76e5 | 1.87e5 | 1.91e5 | 16680 | inactive |
| numb (GeneID 34263) | SID104183376 | 1.83e5 | 2.44e5 | 2.00e5 | 2.04e5 | 17582 | inactive |
| Atet (GeneID 33636) | SID104180055 | 2.57e5 | 2.05e5 | 2.69e5 | 2.44e5 | 12115 | inactive |
| ari-1 (GeneID 32796) | SID104200100 | 74025 | 72310 | 62730 | 64095 | 8435 | inactive |
| Polr2I (GeneID 41741) | SID104196624 | 1.34e5 | 1.19e5 | 99755 | 1.07e5 | 8920 | inactive |
| Idgf6 (GeneID 36868) | SID104187152 | 99210 | 95050 | 1.77e5 | 2.00e5 | 7295 | inactive |
| CG3795 (GeneID 31128) | SID104198385 | 1.50e5 | 1.41e5 | 1.83e5 | 1.82e5 | 11970 | inactive |
| CG13690 (GeneID 33213) | SID104180151 | 1.46e5 | 1.35e5 | 1.16e5 | 79165 | 10395 | inactive |
| dcma (GeneID 5740672) | SID104180038 | 1.24e5 | 1.23e5 | 1.57e5 | 1.63e5 | 9865 | inactive |
| dcma (GeneID 5740672) | SID104180130 | 45160 | 41685 | 45825 | 47050 | 2188 | inactive |
